The values below come from US20210309754A1 (JCR PHARMACEUTICALS, published 2021).

Test [1] addresses recombinant human TfR (r human TfR: Sino Biological Inc.), extracellular region with N-terminal histidine tag (human) (UniProt P02786). Put plainly: BLI, Octet RED96.
The target in test [2] is recombinant monkey TfR (r monkey TfR: Sino Biological Inc.), cynomolgus monkey TfR extracellular region with N-terminal histidine tag (cynomolgus monkey (Macaca fascicularis)). Put plainly: BLI, Octet RED96.
Test [3] concerns the target TfR existing on the endothelium of blood vessels in the brain of cynomolgus monkeys (printed as hTfR) (cynomolgus monkey (Macaca fascicularis)). Put plainly: immunohistochemical staining of monkey brain after intravenous administration.
For test [4] the target is unchanged. Kind of test: immunohistochemical staining of monkey brain after intravenous administration (Example 8).

Results are given in words; binding and its absence hold for the method and conditions named. Some entries that bind do so weakly or less than the wild type.

B1: humanized anti-hTfR antibody No. 1 (antibody, human IgG1, kappa, V domains shown)
VH: EVQLVESGGGLVQPGGSLRLSCAASGLTFSNYGMSWVRQAPGKGLELVANINTNGGSTYYPDSVKGRFTISRDNAKNSLYLQMNSLRAEDTAVYYCTNNRYDEDYWGQGTLVTVSS
VL: DIQVTQSPSFLSASVGDRVTITCKASQDVNSAVAWFQQKPGKAPKLLIYWTSTRHTGVPDRFSGSGSGTVYTLTISSLQPEDFATYYCQQHYSTPRTFGGGTKVEIKR
As to B1, the binding result in test [1] and in test [2] was “binds” in each case.

B2: anti-hTfR antibody No. 2 (antibody, V domains shown)
VH: EVQLQESGAELVRPGVSVKISCKGSGYTFTDYVMHWVRQSHAKSLEWIGVISTYYGHGSYNQRFKGKATMTVDKSSSTAYLELVRLTSEDSAIYYCVRGGYGSSSLAGNFDVWGAGTTVTVSS
VL: DIVLTQSPATLSVTPGDSVSLSCRASQSISNNLQWYQQKSHESPRLLIKYASQSISGIPSRFSGSGSGTDFTLSINSVETEDFGMYFCQQSNSWPRTFGAGTKLELKR
notes: Mouse monoclonal antibody from a hybridoma, purified on Protein G; also called mouse anti-hTfR antibody No. 2; antibody of Clone 2 line
Regarding B2, the binding result in test [3] and in test [4] was “binds” in each case.

B3: anti-hTfR antibody No. 1 (antibody, V domains shown)
VH: EVQLQESGGGLVQPGGSLKLSCAASGLTFSNYGMSWIRQTPDKRLELVANINTNGGSTYYPDSVKGRFTISRDNAKNTLYLQMNSLKSEDTAIYYCTNNRYDEDYWGQGTSVTVSS
VL: DIVLTQSSKFMSTSVGDRVSITCKASQDVNSAVAWFQQKPGQSPKLLIYWTSTRHTGVPDRFTGSGSGTVYTLTISSVQAEDLALYYCQQHYSTPRTFGGGTKLEIKR
Consider B3, for which the binding entry in test [3] and in test [4] was “binds” in each case.
